Results from publication PMC4823106.
These are yes or no findings as the source states them, for the method shown. In cells and extracts the contact can be indirect. Some binding calls cover weakened binding; strength is not graded here.

Chains of the proteins cited; added tags and fusions are not shown. Residues count along the entry.
UniProt Q9UBP4, residues 22-350: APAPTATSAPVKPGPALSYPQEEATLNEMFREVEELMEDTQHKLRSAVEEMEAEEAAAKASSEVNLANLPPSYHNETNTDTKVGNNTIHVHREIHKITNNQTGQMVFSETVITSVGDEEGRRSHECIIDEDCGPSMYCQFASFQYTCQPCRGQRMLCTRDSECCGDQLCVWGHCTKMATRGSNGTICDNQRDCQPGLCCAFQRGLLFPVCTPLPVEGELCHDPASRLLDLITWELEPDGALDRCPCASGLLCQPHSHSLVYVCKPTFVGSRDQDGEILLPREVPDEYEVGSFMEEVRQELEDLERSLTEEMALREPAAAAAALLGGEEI
UniProt P10275: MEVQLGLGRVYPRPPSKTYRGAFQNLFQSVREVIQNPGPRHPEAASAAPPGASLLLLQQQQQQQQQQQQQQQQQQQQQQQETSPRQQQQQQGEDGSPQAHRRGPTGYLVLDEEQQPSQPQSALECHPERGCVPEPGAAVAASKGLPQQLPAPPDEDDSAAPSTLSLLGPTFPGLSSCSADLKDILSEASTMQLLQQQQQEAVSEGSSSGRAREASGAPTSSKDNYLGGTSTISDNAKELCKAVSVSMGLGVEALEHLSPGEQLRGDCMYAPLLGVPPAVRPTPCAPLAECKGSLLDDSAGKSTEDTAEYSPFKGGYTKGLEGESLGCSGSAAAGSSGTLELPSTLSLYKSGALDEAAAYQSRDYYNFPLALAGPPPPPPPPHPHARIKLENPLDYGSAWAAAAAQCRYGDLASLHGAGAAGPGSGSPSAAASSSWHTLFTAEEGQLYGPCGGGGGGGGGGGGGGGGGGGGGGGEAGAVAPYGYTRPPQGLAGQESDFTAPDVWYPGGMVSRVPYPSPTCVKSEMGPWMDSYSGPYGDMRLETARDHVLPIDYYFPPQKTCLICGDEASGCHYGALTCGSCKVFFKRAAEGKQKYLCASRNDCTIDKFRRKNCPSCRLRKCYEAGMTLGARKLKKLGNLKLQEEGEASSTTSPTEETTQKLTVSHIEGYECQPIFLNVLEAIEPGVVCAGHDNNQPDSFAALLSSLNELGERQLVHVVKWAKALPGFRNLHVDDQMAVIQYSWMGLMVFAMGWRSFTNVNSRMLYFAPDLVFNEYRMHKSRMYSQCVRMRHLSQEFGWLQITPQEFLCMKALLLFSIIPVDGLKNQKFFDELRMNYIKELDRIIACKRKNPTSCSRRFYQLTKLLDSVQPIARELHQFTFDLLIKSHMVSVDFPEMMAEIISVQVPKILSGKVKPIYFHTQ
UniProt P63172: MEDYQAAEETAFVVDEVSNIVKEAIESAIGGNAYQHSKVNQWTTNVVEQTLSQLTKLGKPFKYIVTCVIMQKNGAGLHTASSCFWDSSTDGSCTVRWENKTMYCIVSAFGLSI

Biological target: Halo-tagged REIC/DKK-3 (full-length human, pFN21A) (human) (UniProt Q9UBP4)
Test: pull-down; lysates of PC3 cells expressing Halo-REIC/DKK-3, GFP-AR, FLAG-TCTEX-1 and HA-SGTA; pulled down by Halo-tagged REIC/DKK-3; Western blot with anti-Halo, -HA, -FLAG and -GFP

| binding | Substance |
| --- | --- |
| binds | GFP-tagged AR (pEGFP-C1-AR, full-length androgen receptor) (from UniProt P10275 1-920) |
| binds | FLAG-tagged TCTEX-1 (from UniProt P63172 1-113) |
